Reference: PMC8274477
Results are given in words; binding and its absence hold for the method and conditions named. Some binding calls cover weakened binding; strength is not graded here.

Sequences of proteins named here, by UniProt entry; tags and fusion partners are left off. Residues count along the entry.
UniProt Q02127: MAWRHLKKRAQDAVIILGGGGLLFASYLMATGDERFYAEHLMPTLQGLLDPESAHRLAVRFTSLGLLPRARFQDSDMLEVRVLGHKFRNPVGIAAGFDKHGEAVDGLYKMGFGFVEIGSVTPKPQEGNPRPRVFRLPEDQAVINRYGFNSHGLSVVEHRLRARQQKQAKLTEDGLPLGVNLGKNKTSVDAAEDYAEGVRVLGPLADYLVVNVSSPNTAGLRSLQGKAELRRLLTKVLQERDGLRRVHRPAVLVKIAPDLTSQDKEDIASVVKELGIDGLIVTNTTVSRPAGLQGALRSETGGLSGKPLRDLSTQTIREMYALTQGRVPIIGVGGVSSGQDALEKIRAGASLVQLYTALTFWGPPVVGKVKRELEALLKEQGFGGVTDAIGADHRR
UniProt P10809, residues 27-573: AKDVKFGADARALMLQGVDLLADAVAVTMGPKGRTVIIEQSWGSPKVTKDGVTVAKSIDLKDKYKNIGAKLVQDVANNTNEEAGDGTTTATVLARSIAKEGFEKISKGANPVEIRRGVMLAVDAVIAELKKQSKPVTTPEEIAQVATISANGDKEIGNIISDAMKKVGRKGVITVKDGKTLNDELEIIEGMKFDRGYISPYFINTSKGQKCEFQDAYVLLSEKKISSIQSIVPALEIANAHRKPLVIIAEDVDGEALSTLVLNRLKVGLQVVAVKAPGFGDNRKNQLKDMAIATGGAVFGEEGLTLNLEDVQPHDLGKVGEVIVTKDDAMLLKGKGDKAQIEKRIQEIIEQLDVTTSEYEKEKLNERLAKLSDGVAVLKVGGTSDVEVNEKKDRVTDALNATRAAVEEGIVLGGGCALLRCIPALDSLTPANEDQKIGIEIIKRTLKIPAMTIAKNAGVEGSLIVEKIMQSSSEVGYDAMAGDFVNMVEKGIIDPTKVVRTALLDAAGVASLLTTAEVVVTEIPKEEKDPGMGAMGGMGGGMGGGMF

Key:
Assay in all cases: peptide or protein array; HuProt human proteome microarray; 5 ug/5 ml biotin-labelled LUBAC or OTULIN in solution, 1 h at room temperature; Cy5-streptavidin, scanned at 635 nm; BSA as negative control; hits: Z-score >= 3 and I_(Mean_Ratio) >= 1.4; both purified
ECI2 (human) = biological target: T1, ECI2 (human) (UniProt O75521)
T1 sequence: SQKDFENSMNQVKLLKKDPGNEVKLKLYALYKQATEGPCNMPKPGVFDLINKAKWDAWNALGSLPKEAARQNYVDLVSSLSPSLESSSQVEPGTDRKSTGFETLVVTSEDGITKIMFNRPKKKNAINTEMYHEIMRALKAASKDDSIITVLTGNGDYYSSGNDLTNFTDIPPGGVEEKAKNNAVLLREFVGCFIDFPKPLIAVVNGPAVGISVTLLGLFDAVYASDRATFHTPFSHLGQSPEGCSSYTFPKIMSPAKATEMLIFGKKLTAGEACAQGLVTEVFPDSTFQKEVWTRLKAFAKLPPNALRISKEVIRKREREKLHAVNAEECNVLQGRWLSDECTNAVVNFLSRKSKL

NUDT6 (human) = biological target: T2, NUDT6 (human) (UniProt P53370)
T2 sequence: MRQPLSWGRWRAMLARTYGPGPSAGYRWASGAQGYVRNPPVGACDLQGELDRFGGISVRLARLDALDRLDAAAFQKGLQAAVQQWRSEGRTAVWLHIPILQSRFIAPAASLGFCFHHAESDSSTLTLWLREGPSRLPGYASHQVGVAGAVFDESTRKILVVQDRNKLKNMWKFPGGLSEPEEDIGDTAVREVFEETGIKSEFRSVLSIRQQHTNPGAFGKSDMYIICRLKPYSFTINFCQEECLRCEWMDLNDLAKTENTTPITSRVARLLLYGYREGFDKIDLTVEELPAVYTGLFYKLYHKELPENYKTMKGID

DHODH (human) = DHODH (human) (UniProt Q02127)
A1CF (human) = biological target: T3, A1CF (human) (UniProt Q9NQ94)
T3 sequence: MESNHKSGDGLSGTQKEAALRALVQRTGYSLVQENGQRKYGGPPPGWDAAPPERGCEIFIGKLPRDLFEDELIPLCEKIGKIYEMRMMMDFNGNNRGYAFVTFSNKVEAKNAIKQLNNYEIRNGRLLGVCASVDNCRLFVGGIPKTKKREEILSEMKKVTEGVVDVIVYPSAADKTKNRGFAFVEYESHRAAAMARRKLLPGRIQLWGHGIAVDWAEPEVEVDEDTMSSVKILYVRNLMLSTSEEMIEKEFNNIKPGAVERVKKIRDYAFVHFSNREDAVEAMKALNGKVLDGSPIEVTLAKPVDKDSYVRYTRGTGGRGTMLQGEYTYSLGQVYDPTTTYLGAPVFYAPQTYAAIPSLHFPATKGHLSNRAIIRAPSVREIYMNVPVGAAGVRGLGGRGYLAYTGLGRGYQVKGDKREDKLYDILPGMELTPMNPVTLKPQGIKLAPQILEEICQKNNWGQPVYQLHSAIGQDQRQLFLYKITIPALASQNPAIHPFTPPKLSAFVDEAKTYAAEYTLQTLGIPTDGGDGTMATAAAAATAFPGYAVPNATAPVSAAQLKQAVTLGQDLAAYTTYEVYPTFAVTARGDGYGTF

GPT2 (human) = biological target: T4, GPT2 (human) (UniProt Q8TD30)
T4 sequence: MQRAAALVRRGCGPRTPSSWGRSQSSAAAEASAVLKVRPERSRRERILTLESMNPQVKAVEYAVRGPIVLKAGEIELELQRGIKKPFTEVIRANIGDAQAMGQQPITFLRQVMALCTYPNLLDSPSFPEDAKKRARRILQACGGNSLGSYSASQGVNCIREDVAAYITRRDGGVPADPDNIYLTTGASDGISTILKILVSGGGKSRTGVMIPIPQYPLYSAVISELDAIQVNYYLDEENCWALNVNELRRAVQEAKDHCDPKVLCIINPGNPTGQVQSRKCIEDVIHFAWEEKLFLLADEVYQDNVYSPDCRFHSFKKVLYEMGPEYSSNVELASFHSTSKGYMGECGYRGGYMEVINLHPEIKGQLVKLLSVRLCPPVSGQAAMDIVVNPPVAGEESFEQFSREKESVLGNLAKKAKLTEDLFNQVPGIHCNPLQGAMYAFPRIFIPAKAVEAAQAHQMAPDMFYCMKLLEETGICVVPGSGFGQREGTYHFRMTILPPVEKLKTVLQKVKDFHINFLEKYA

EIF4H (human) = EIF4H (human) (UniProt Q15056)
HSPD1 (human) = HSPD1 (human) (UniProt P10809)

Measured: binding

linear ubiquitin chain assembly complex (LUBAC), purified as HIS-tagged HOIP with the subunit HOIL-1, biotin-labelled (from UniProt Q96EP0 1-1072; Q9BYM8 1-510)
binds: all assays above
